# Like-named read-outs stand apart in the source and are kept apart here.
# Key:
# [1] = Recovery test of MA added to urine, enzyme immunoassay with enzyme-labeled antibody; design: species or system man
# [2] = Recovery test of MA in the presence of methylephedrine, enzyme immunoassay with enzyme-labeled antibody; design: species or system man
# [3] = tested on: serum having high cross-reactivity with ME; conditions: Comparative ex.: MA added 5.0 µg/ml, from cross-reactive ratio of serum of S. Tokura, Anal. Biochem. 161, 117 (1987), cited from earlier work
structure (smiles),measurement,setting,value
"CN[C@@H](C)Cc1ccccc1 [MA, methamphetamine]",Found value,[1]; MA concentration in urine after MA added 30 ng/ml,36.5 ng/mL
same,Found value,[1]; MA concentration in urine after MA added 100 ng/ml,100 ng/mL
same,Found value,[1]; MA concentration in urine after MA added 300 ng/ml,300 ng/mL
same,Found value,[1]; MA concentration in urine after MA added 1000 ng/ml,925 ng/mL
same,Found value,[1]; MA concentration in urine after MA added 3000 ng/ml,2650 ng/mL
same,amount of MA assayed,"[2]; MA added 0.5 µg/ml, ME added 0 µg/ml",0.56 µg/mL
same,amount of MA assayed,"[2]; MA added 0.5 µg/ml, ME added 1 µg/ml",0.58 µg/mL
same,amount of MA assayed,"[2]; MA added 0.5 µg/ml, ME added 10 µg/ml",0.62 µg/mL
same,amount of MA assayed,"[2]; MA added 0.5 µg/ml, ME added 100 µg/ml",1.60 µg/mL
same,amount of MA assayed,"[2]; MA added 1.0 µg/ml, ME added 0 µg/ml",1.25 µg/mL
same,amount of MA assayed,"[2]; MA added 1.0 µg/ml, ME added 1 µg/ml",1.25 µg/mL
same,amount of MA assayed,"[2]; MA added 1.0 µg/ml, ME added 10 µg/ml",1.50 µg/mL
same,amount of MA assayed,"[2]; MA added 1.0 µg/ml, ME added 100 µg/ml",2.60 µg/mL
same,amount of MA assayed,"[2]; MA added 5.0 µg/ml, ME added 0 µg/ml",5.40 µg/mL
same,amount of MA assayed,"[2]; MA added 5.0 µg/ml, ME added 1 µg/ml",5.50 µg/mL
same,amount of MA assayed,"[2]; MA added 5.0 µg/ml, ME added 10 µg/ml",5.90 µg/mL
same,amount of MA assayed,"[2]; MA added 5.0 µg/ml, ME added 100 µg/ml",6.00 µg/mL
same,amount of MA assayed,[3]; ME added 10 µg/ml,7.00 µg/mL
same,amount of MA assayed,[3]; ME added 100 µg/ml,25.00 µg/mL
"CC([C@H](O)c1ccccc1)N(C)C (stereo partly shown) [ME, methylephedrin]",amount of MA assayed,"[2]; Control: MA added 0, ME added 1 µg/ml",0.03 µg/mL
same,amount of MA assayed,"[2]; Control: MA added 0, ME added 10 µg/ml",0.12 µg/mL
same,amount of MA assayed,"[2]; Control: MA added 0, ME added 100 µg/ml",1.25 µg/mL

# From patent EP0311383B1, “Monoclonal antibody to methamphetamine, preparation of the same, assay method and assay kit of methamphetamine” (UBE INDUSTRIES, LTD., priority 1987, dated 1989)
